The values that follow come from PMC4696740.

First the molecules themselves.
B1: Arabidopsis ABF3 (protein, UniProt Q9M7Q3 1-454)
chain: MGSRLNFKSFVDGVSEQQPTVGTSLPLTRQNSVFSLTFDEFQNSWGGGIGKDFGSMNMDELLKNIWTAEESHSMMGNNTSYTNISNGNSGNTVINGGGNNIGGLAVGVGGESGGFFTGGSLQRQGSLTLPRTISQKRVDDVWKELMKEDDIGNGVVNGGTSGIPQRQQTLGEMTLEEFLVRAGVVREEPQPVESVTNFNGGFYGFGSNGGLGTASNGFVANQPQDLSGNGVAVRQDLLTAQTQPLQMQQPQMVQQPQMVQQPQQLIQTQERPFPKQTTIAFSNTVDVVNRSQPATQCQEVKPSILGIHNHPMNNNLLQAVDFKTGVTVAAVSPGSQMSPDLTPKSALDASLSPVPYMFGRVRKTGAVLEKVIERRQKRMIKNRESAARSRARKQAYTMELEAEIAQLKELNEELQKKQVEIMEKQKNQLLEPLRQPWGMGCKRQCLRRTLTGPW
B2: Arabidopsis ABF2 (protein, UniProt Q9M7Q4 1-416)
chain: MDGSMNLGNEPPGDGGGGGGLTRQGSIYSLTFDEFQSSVGKDFGSMNMDELLKNIWSAEETQAMASGVVPVLGGGQEGLQLQRQGSLTLPRTLSQKTVDQVWKDLSKVGSSGVGGSNLSQVAQAQSQSQSQRQQTLGEVTLEEFLVRAGVVREEAQVAARAQIAENNKGGYFGNDANTGFSVEFQQPSPRVVAAGVMGNLGAETANSLQVQGSSLPLNVNGARTTYQQSQQQQPIMPKQPGFGYGTQMGQLNSPGIRGGGLVGLGDQSLTNNVGFVQGASAAIPGALGVGAVSPVTPLSSEGIGKSNGDSSSLSPSPYMFNGGVRGRKSGTVEKVVERRQRRMIKNRESAARSRARKQAYTVELEAEVAKLKEENDELQRKQARIMEMQKNQETEMRNLLQGGPKKKLRRTESGPW
B3: Arabidopsis ABF1 (protein, UniProt Q9M7Q5 1-392)
chain: MGTHIDINNLGGDTSRGNESKPLARQSSLYSLTFDELQSTLGEPGKDFGSMNMDELLKNIWTAEDTQAFMTTTSSVAAPGPSGFVPGGNGLQRQGSLTLPRTLSQKTVDEVWKYLNSKEGSNGNTGTDALERQQTLGEMTLEDFLLRAGVVKEDNTQQNENSSSGFYANNGAAGLEFGFGQPNQNSISFNGNNSSMIMNQAPGLGLKVGGTMQQQQQPHQQQLQQPHQRLPPTIFPKQANVTFAAPVNMVNRGLFETSADGPANSNMGGAGGTVTATSPGTSSAENNTWSSPVPYVFGRGRRSNTGLEKVVERRQKRMIKNRESAARSRARKQAYTLELEAEIESLKLVNQDLQKKQAEIMKTHNSELKEFSKQPPLLAKRQCLRRTLTGPW
B4: Arabidopsis ABF4 (protein, UniProt Q9M7Q2 1-431)
chain: MGTHINFNNLGGGGHPGGEGSSNQMKPTGSVMPLARQSSVYSLTFDELQNTLGGPGKDFGSMNMDELLKSIWTAEEAQAMAMTSAPAATAVAQPGAGIPPPGGNLQRQGSLTLPRTISQKTVDEVWKCLITKDGNMEGSSGGGGESNVPPGRQQTLGEMTLEEFLFRAGVVREDNCVQQMGQVNGNNNNGFYGNSTAAGGLGFGFGQPNQNSITFNGTNDSMILNQPPGLGLKMGGTMQQQQQQQQLLQQQQQQMQQLNQPHPQQRLPQTIFPKQANVAFSAPVNITNKGFAGAANNSINNNNGLASYGGTGVTVAATSPGTSSAENNSLSPVPYVLNRGRRSNTGLEKVIERRQRRMIKNRESAARSRARKQAYTLELEAEIEKLKKTNQELQKKQAEMVEMQKNELKETSKRPWGSKRQCLRRTLTGPW
B5: Arabidopsis ABI5 (protein, UniProt Q9SJN0 1-442)
chain: MVTRETKLTSEREVESSMAQARHNGGGGGENHPFTSLGRQSSIYSLTLDEFQHALCENGKNFGSMNMDEFLVSIWNAEENNNNQQQAAAAAGSHSVPANHNGFNNNNNNGGEGGVGVFSGGSRGNEDANNKRGIANESSLPRQGSLTLPAPLCRKTVDEVWSEIHRGGGSGNGGDSNGRSSSSNGQNNAQNGGETAARQPTFGEMTLEDFLVKAGVVREHPTNPKPNPNPNQNQNPSSVIPAAAQQQLYGVFQGTGDPSFPGQAMGVGDPSGYAKRTGGGGYQQAPPVQAGVCYGGGVGFGAGGQQMGMVGPLSPVSSDGLGHGQVDNIGGQYGVDMGGLRGRKRVVDGPVEKVVERRQRRMIKNRESAARSRARKQAYTVELEAELNQLKEENAQLKHALAELERKRKQQYFESLKSRAQPKLPKSNGRLRTLMRNPSCPL

Results are given in words; binding and its absence hold for the method and conditions named. Binding calls can cover weak binding; strength is not graded here.

The target in the test is Glycine soja 14-3-3 protein GsGF14o (Glycine soja). In words: two-hybrid; GsGF14o fused to the GAL4 DNA-binding domain (pGBKT7) as bait, AREB/ABFs at the C-terminus of the GAL4 activating domain (pGADT7); yeast strain AH109; serial dilutions on SD/-Trp-Leu, SD/-Trp-Leu-His and SD/-Trp-Leu-His-Ade medium.
Turning to B1, the binding result is recorded as “binds”. Next, B2: “binds”. Under B3 stands “binds”. Next, B4: “binds”; B5: “binds”.
